Measurements as given in paper PMC4965137.

Each sequence was assayed against MBP (UniProt P0AEX9) (assay: EMSA). Conditions: 1 pmol protein; 25 mM HEPES-KOH pH 7.5, 75 mM KCl, 2.5 mM DTT, 10% glycerol, 1.25 ng poly-dIdC; 20 fmol probe, 0.5-2 pmol protein; 10 min room temperature then 20 min on ice with probe; recombinant protein; label: 32P 5' end.

Binding result, no binding:
GGCGAGTTTTAGATATTTTCACCCGCTCC (double strand) [ZmTOC1a promoter probe]

These sequences were tested against rZmCCA1b (Zea mays B73) (UniProt K7U156) (assay: EMSA). Conditions: 25 mM HEPES-KOH pH 7.5, 75 mM KCl, 2.5 mM DTT, 10% glycerol, 1.25 ng poly-dIdC; 20 fmol probe, 0.5-2 pmol protein; 10 min room temperature then 20 min on ice with probe; recombinant protein; protein details: MBP (pMAL-C2); label: 32P 5' ….

Binding result, no binding:
CTCTTTAAAAAAAAAGAGTCATTTAAGG (double strand) [ZmPRR59 M]
GACCCCACCTAGCCGGTCTGTGTCTGTCC (double strand) [ZmTOC1a N]
GCATCGCGGAAAAAAGAGTTTTCTCGCC (double strand) [gi1 M]
GGCGAGTTTTCCCCGCGATCACCCGCTCC (double strand) [ZmTOC1a M]
GGGTCAGGCCGTCACGGGTCCAATGGAC (double strand) [ZmPRR59 N]
GTCCGAGGCTAGGCTCGGGTGAAGCGTG (double strand) [gi1 N]

No signal at the amounts used counts as a negative. At least one verdict was read from the data and is not stated in words by the source.
